Measured values from patent US8877738B2, “Antipathogenic peptides” (priority 2009, dated 2014).
Not every detail of the peptide structures is certain; ends, links or a residue may be inferred.

How the values were obtained:
HSV-1 [1] = experiment: HSV-1 entry assay in Vero cells (compound added after virus adsorption); type: cell-based; conditions: compound added after adsorption (3 h at 4° C.), 2 h at 37° C.; plaques after 48 h
HSV-1 [2] = experiment: HSV-1 attachment (adsorption) assay on Vero cells; type: cell-based; conditions: compound present during adsorption, 3 h at 4° C., 200 PFU; plaques after 48 h
Procedure: FIG. 3. The dendrimeric peptides SB105 and SB105-A10 inhibit HSV-1 and HSV-2 attachment to Vero cells. Pre-chilled Vero cells were incubated at 4° C. with different concentrations of SB105, SB105-A10, SB104 or heparin and with 200 PFU of HSV-1 or HSV-2. Following virus adsorption (3 h at 4° C.), cells were then washed with cold PBS three times to remove compound and unadsorbed viruses, overlaid with medium containing 1.2% methylcellulose and incubated at 37° C. for 48 h. Viral plaques were then stained and counted, and the mean plaque counts for each peptide concentration expressed as a percentage of the mean count of the controls. The data shown represent means±SD of three independent experiments (error bars).
Following virus adsorption (3 h at 4° C., a condition that is known to allow virus adsorption only), cells were then washed with cold PBS three times to remove compound and unadsorbed viruses, overlaid with medium containing 1.2% methylcellulose and incubated at 37° C. Forty eight hours later, plates were fixed and stained with crystal violet and the viral plaques counted.

## CC[C@H](C)[C@H](NC(=O)[C@H](CCCNC(=N)N)NC(=O)[C@@H](NC(=O)[C@H](CCCNC(=N)N)NC(=O)[C@H](CC(C)C)NC(=O)[C@H](CO)NC(=O)[C@H](C)N)C(C)C)C(=O)N[C@@H](CCCCN)C(=O)N[C@@H](CCCCN)C(=O)N[C@@H](CCC(N)=O)C(=O)NCCCC[C@H](NC(=O)[C@H](CCC(N)=O)NC(=O)[C@H](CCCCN)NC(=O)[C@H](CCCCN)NC(=O)[C@@H](NC(=O)[C@H](CCCNC(=N)N)NC(=O)[C@@H](NC(=O)[C@H](CCCNC(=N)N)NC(=O)[C@H](CC(C)C)NC(=O)[C@H](CO)NC(=O)[C@H](C)N)C(C)C)[C@@H](C)CC)C(=O)NCCCC[C@H](NC(=O)[C@H](CCCCNC(=O)[C@H](CCC(N)=O)NC(=O)[C@H](CCCCN)NC(=O)[C@H](CCCCN)NC(=O)[C@@H](NC(=O)[C@H](CCCNC(=N)N)NC(=O)[C@@H](NC(=O)[C@H](CCCNC(=N)N)NC(=O)[C@H](CC(C)C)NC(=O)[C@H](CO)NC(=O)[C@H](C)N)C(C)C)[C@@H](C)CC)NC(=O)[C@H](CCC(N)=O)NC(=O)[C@H](CCCCN)NC(=O)[C@H](CCCCN)NC(=O)[C@@H](NC(=O)[C@H](CCCNC(=N)N)NC(=O)[C@@H](NC(=O)[C@H](CCCNC(=N)N)NC(=O)[C@H](CC(C)C)NC(=O)[C@H](CO)NC(=O)[C@H](C)N)C(C)C)[C@@H](C)CC)C(=O)NCCC(N)=O [SB105, (ASLRVRIKKQ)4-Lys2-Lys-β-Ala]
HSV-1 [1]
  effect on HSV-1 entry into Vero cells (plaque counts vs untreated controls): do not affect
HSV-1 [2]
  effect on HSV-1 attachment to Vero cells: prevented attachment
